Where two headings read alike, the source gives them in different places. No constants are given. Whether binding was seen depends on the method and setting. In cells and extracts the contact can be indirect. Some binding calls cover weakened binding; strength is not graded here.

Sequences of proteins named here, by UniProt entry; tags and fusion partners are left off.
UniProt Q8CFI0: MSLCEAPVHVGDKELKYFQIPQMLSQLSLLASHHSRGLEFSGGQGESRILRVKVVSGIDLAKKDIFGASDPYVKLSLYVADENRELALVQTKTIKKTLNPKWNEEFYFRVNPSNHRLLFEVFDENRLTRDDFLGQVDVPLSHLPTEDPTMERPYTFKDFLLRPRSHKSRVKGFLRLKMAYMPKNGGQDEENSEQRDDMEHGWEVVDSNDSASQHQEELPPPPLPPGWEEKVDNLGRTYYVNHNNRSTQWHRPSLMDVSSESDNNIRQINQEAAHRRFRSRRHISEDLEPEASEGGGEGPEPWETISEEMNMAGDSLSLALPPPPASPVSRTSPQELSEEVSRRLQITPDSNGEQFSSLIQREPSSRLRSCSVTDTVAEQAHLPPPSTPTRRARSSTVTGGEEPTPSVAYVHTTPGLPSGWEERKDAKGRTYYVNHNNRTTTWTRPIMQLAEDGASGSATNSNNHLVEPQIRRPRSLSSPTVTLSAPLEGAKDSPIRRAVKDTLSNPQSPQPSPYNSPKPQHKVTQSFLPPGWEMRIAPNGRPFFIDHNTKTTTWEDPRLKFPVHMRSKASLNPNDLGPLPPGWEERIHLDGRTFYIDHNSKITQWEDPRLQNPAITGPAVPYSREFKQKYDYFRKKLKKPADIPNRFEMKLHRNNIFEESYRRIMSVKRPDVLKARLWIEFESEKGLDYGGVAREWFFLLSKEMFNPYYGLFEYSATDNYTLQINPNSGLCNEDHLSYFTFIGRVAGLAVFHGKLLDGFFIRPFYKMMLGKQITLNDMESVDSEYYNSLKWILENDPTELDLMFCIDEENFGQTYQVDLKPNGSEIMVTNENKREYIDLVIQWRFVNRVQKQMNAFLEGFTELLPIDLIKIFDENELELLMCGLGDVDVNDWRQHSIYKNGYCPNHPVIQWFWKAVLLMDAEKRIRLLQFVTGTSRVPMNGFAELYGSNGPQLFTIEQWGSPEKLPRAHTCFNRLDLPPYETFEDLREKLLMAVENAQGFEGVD

Experiment [1] deals with T1, endogenous TRAF3 (mouse peritoneal macrophages) (mouse (endogenous in peritoneal macrophages)) (UniProt Q60803).
T1 sequence: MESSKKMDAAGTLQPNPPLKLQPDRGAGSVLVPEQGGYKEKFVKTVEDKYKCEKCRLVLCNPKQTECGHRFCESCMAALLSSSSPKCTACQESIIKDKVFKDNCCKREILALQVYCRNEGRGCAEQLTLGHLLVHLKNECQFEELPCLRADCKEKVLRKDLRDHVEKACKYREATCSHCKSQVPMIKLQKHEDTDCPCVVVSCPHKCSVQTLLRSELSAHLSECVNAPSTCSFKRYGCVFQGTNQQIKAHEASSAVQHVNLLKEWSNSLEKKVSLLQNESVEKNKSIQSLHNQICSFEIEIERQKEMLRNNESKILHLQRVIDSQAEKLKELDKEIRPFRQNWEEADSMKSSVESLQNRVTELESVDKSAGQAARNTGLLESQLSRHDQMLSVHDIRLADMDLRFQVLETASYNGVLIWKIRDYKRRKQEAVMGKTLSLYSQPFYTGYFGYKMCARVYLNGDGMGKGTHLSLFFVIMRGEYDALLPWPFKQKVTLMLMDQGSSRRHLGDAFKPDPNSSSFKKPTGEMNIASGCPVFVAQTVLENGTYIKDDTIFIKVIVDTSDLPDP
The experiment is described as follows: co-IP.

Experiment [2] has as its target T1, endogenous TRAF3 (mouse peritoneal macrophages) (mouse (endogenous in peritoneal macrophages)). Description: co-IP. The source holds these as a separate data set.

As to “endogenous Nedd4l (mouse peritoneal macrophages) (from UniProt Q8CFI0 1-1004) (enzyme)”, in experiment [1], the binding result was “binds”.

B1: endogenous HECTD3 (mouse peritoneal macrophages) (enzyme, UniProt Q3U487 1-861)
chain: MAGPGPGAALESPRQLLGRVRFLAEAARSLRAGLPLPAALAFVPREVLYKLYKDPAGPSRVLLPVWEAEGLGLRVGAVGAAPGTGSGPLRAARDSIELRRGACVRTTGEELCNGHGLWVKLTKEQLAEHLSDCSLDEGWLLVCRPAEGGARLVPIDTPDHLQRQQQLFGVDYRPVLRWEQVVDLTYSHRLGSRPQPAEAYTEAIQRLLYVPPTWTYECDEDLIHFLYDHLGKEDENLGSVKQYVESIDVSSYTEEFNVSCLTDSNADTYWESDGSQCQHWVRLTMKKGTIVKKLLLTVDTTDDNFMPKRVVVYGGEGDNLKKLSDVNIDETLIGDVCVLEDMTVHLPIIEIRIVECRDDGIDVRLRGVKIKSSRQRELGLNADLFQPASLVRYPRLEGTDPEVLYRRAVLLQRFIKILDSVLHHLVPAWDHTLGTFSEIKQVKQFLLLSRQRPSLVAQCLRDSESSKPSFMPRLYINRRLAMEHRACPSRDPACKNAVFTQVYEGLKPSDKYEKPLDYRWPMRYDQWWECKFIAEGIIDQGGGFRDSLADMSEELCPSSADTPVPLPFFVRTANQGNGTGEARDMYVPNPSCRDFAKYEWIGQLMGAALRGKEFLVLALPGFVWKQLSGEEVSWSKDFPAVDSVLVKLLEVMEGVDKETFEFKFGKELTFTTVLSDQQVVELIPGGTGIVVEYEDRSRFIQLVRKARLEESKEQVAAMQAGLLKVVPQAVLDLLTWQELEKKVCGDPEVTVDALRKLTRFEDFEPSDTRVQYFWEALNNFTNEDRSRFLRFVTGRSRLPARIYIYPDKLGYETTDALPESSTCSSTLFLPHYASAKVCEEKLRYAAYNCVAIDTDMSPWEE
On to B1, for which, in experiment [2], the binding result is reported as “binds”.

Values taken from article PMC7895832.
